A short description of the data set: general procedure: peptide synthesis; Boc-Pro-OBzl-polystyrene resin 1% cross-linked with divinylbenzene (Peninsula Laboratories, 0.38 meq/g); HOBt and DIPC (benzotriazolyl esters). The note with it: whole synthesis.

This note sets out measurements from US5510460 (dated 1996).

In the case of goserelin, the isolated mass came out at 100 mg. The same substance had an isolated yield (overall, scale of the general procedure 1.25 g resin) of 25% yield overall.
